In the supplement of paper PMC10849652:
The list shows a part of the results.

Protein sequences, listed by entry. Tags and fused reporters are not part of them. Lines headed by an entry give the natural chain unless they say otherwise; changes in a name come on top.
UniProt Q9H9S5: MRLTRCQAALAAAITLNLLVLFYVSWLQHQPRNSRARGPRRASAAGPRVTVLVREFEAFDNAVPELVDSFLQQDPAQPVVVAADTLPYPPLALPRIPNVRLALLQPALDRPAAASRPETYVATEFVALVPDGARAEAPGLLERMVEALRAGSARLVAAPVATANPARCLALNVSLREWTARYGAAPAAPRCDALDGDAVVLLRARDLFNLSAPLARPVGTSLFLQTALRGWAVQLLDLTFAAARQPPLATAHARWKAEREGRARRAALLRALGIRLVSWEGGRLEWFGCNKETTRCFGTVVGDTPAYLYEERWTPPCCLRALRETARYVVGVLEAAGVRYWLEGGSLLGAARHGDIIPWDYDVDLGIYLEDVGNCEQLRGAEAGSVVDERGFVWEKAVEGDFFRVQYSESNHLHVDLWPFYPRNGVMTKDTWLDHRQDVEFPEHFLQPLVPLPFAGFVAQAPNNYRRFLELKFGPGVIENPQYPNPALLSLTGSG
UniProt Q96NB1: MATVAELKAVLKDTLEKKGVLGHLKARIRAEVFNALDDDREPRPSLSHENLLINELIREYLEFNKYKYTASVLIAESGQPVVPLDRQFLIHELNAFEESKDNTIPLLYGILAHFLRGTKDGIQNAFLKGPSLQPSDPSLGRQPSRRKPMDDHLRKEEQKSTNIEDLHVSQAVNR
UniProt Q96HJ9: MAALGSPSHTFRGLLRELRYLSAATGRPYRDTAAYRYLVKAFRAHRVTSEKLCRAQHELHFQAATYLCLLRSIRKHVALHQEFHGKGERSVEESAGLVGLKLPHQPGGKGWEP
UniProt Q8N3Y1: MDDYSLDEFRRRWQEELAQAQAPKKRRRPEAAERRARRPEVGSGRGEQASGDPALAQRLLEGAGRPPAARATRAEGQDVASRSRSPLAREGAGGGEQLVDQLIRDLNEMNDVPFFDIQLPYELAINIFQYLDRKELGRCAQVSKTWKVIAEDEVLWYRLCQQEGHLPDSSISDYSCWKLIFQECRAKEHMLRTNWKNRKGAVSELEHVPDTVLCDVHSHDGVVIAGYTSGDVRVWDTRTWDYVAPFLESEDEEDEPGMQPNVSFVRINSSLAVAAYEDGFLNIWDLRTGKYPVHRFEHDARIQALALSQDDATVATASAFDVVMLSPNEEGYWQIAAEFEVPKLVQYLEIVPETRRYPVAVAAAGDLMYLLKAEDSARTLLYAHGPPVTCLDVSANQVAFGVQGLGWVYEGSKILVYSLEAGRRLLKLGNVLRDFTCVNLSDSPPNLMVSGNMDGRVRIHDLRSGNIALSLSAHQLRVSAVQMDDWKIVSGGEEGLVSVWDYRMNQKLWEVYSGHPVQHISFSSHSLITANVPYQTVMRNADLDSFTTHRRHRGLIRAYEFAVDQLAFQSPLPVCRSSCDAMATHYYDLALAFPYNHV
UniProt Q6ZV73: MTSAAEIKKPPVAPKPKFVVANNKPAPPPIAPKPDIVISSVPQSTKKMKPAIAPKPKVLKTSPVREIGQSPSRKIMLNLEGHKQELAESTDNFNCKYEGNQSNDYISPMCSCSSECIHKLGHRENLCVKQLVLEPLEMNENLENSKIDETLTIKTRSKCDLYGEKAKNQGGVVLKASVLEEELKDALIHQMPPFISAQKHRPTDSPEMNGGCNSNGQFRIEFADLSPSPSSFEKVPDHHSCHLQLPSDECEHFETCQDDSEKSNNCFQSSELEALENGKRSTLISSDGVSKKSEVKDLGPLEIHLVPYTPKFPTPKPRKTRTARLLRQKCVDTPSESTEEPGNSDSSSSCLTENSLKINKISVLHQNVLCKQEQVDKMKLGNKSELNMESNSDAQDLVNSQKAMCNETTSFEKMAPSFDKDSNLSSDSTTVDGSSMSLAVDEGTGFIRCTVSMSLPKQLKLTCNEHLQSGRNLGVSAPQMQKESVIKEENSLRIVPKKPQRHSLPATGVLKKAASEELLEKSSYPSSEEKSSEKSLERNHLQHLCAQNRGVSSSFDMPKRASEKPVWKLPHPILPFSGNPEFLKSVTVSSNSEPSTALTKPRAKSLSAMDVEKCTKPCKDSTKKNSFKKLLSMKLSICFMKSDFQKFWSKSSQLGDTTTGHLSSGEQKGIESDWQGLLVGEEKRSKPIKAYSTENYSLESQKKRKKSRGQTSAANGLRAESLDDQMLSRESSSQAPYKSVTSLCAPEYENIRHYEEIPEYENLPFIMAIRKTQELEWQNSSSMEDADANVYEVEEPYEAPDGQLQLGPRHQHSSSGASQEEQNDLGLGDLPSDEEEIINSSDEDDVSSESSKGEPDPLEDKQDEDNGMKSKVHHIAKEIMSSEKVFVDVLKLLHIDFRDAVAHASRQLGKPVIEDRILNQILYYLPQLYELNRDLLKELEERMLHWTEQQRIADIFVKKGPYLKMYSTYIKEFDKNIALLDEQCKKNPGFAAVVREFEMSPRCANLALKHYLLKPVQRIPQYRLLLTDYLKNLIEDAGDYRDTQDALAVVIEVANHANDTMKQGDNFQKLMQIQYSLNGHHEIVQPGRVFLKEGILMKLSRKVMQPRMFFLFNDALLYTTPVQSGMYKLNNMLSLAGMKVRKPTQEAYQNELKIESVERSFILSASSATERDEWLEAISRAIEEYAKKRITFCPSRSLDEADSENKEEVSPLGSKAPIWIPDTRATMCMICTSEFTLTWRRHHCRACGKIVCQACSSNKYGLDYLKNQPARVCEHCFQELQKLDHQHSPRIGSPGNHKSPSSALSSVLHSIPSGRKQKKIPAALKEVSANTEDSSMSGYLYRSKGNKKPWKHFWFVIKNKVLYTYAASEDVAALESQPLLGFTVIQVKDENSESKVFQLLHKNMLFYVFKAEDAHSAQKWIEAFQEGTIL
UniProt Q9UHY8: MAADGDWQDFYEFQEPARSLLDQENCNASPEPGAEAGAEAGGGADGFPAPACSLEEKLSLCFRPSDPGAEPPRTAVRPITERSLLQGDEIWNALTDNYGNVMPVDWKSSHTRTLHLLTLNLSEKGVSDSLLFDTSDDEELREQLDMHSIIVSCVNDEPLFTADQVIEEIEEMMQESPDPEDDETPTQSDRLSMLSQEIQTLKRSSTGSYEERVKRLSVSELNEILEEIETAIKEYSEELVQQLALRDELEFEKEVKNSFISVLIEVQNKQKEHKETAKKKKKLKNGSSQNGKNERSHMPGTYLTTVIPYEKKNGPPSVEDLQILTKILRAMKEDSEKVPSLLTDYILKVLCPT
UniProt Q96PY5, whole entry, looked up: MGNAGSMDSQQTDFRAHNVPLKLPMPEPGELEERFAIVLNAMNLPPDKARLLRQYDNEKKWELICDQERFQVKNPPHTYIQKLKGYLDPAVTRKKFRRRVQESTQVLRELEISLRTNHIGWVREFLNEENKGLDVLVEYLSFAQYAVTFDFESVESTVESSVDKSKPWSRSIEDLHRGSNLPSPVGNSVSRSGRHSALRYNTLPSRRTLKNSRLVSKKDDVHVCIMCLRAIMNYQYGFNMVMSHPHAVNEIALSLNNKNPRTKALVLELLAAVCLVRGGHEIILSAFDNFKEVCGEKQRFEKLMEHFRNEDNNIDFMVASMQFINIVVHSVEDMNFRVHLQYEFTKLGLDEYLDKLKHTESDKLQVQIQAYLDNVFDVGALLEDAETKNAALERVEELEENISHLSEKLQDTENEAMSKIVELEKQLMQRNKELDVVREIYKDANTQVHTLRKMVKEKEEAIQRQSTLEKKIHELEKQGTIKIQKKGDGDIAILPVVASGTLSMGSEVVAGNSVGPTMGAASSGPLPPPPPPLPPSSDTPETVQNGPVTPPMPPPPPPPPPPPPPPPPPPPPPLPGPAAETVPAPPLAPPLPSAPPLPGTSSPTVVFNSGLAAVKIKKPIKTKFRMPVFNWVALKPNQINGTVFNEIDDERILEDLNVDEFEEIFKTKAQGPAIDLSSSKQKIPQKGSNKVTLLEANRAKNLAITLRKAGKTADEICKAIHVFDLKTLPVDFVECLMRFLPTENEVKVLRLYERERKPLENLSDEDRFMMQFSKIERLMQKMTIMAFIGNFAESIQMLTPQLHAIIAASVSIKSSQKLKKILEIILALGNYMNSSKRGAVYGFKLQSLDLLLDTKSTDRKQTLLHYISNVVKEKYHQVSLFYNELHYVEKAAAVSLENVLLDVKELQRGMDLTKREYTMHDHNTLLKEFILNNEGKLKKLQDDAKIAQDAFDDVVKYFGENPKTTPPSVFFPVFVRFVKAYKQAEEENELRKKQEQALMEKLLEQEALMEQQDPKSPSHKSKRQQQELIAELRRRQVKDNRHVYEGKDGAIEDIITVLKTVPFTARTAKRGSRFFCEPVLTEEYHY
UniProt P0C2W1: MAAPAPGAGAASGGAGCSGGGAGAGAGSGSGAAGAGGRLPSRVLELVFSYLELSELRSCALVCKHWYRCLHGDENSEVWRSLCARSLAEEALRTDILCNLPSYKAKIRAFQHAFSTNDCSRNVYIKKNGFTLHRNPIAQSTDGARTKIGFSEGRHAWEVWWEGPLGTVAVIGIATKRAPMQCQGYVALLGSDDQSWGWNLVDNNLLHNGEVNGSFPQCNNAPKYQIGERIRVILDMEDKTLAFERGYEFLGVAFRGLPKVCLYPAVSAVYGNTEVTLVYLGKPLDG
UniProt P23142: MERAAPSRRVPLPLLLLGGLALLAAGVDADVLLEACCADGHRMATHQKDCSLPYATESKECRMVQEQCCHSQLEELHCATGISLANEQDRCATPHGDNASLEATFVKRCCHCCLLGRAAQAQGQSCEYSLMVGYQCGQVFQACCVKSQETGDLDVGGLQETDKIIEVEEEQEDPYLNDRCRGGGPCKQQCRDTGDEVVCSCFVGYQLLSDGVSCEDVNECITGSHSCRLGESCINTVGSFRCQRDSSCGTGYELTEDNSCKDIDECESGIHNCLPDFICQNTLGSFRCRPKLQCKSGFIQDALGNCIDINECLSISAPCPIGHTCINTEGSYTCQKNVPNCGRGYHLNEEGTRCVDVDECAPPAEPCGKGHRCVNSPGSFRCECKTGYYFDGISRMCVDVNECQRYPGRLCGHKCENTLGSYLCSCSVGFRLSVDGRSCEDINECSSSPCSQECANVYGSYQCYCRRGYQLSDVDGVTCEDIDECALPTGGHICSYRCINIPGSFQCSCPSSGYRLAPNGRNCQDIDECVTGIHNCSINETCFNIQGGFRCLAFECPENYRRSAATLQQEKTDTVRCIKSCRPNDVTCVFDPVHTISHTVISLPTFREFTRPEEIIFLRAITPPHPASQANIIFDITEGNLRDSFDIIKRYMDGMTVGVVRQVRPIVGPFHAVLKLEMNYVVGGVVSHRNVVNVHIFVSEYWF
UniProt Q9H4M3: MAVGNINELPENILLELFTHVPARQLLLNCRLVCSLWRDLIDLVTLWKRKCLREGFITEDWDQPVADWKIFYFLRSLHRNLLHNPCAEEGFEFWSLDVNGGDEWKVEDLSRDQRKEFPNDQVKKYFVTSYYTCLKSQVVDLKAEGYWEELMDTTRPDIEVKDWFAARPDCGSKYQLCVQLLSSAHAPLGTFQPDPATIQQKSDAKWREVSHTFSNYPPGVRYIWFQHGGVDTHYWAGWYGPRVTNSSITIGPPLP
UniProt Q9Y4F1: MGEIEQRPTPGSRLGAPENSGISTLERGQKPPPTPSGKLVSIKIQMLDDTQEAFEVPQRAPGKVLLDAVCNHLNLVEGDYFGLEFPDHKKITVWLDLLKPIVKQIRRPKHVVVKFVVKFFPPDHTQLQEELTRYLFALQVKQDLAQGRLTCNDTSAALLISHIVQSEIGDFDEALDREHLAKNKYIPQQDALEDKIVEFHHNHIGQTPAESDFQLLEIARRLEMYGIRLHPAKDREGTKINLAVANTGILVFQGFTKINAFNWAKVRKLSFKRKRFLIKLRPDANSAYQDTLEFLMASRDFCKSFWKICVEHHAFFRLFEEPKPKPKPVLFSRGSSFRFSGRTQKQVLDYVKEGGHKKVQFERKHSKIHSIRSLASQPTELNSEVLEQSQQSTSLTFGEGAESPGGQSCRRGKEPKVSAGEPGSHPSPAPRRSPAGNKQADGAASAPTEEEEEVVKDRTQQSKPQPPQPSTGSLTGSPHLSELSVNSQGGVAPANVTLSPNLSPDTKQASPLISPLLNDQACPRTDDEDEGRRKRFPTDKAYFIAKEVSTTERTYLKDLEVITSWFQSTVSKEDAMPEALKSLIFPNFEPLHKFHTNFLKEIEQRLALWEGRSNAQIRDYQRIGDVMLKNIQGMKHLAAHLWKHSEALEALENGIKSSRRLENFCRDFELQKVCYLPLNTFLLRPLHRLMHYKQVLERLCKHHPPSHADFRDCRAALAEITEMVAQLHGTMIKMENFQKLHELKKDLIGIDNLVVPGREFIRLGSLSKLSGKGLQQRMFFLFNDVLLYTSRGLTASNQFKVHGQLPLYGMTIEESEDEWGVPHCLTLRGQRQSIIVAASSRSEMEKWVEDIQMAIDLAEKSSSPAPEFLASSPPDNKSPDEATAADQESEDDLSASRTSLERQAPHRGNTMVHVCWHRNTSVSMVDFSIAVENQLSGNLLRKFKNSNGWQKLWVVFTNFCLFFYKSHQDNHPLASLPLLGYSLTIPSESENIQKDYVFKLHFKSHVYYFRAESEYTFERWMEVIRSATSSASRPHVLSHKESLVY

Compound: CC(C)(C)Cn1c(N)nc2ccc(-c3[nH]c(C(C)(C)C)nc3-c3ccc(F)cc3)nc21 [ralimetinib]
Experiment: log2 fold change, soluble protein after heating vs DMSO (PISA); higher = thermal stabilisation; K562 lysate, 10 uM; active = over 0.2 and 3.5 SD of the protein, either way, in both replicates (recomputed)
Procedure, shortened: (§1)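 Values give the log-two fold change in thermal stability against solvent controls, from duplicates. Crude K562 extract at 1 mg/mL protein, made by dounce homogenisation in PBS pH 7.4 with 1 mM MgCl2, was treated with 10 μM compound for 30 min. After 3 min heating across 48°C-58°C, aliquots were pooled, adjusted to 0.5% NP-40 at 4°C and centrifuged at 21,000xg for 90 min. The supernatant was measured by TMTpro 16plex LC-MS/MS with channel sums equalised.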

log2 fold change, inactive:
FBXW2 (UniProt Q9UKT8) -0.036
FKBP2 (UniProt P26885) 0.018
FHAD1 isoform 3 (UniProt B1AJZ9) -0.162
FBXW11 (UniProt Q9UKB1) 0.003
FKRP (UniProt Q9H9S5) -0.042
FOPNL (UniProt Q96NB1) -0.008
FMC1 (UniProt Q96HJ9) 0.119
FMR1 isoform 9 (UniProt Q06787) -0.138
FAM86B2 (UniProt P0C5J1) -0.108
FBXW8 (UniProt Q8N3Y1) -0.057
FGD6 (UniProt Q6ZV73) -0.637
FEZ2 isoform 2 (UniProt Q9UHY8) 0.009
FANCC (UniProt Q00597) -0.14
FNBP4 isoform 2 (UniProt Q8N3X1) 0.007
FMNL2 isoform 3 (UniProt Q96PY5) -0.02
FIZ1 (UniProt Q96SL8) -0.093
FBRSL1, A0A3B3IRR3 0.027
FAT2 (UniProt Q9NYQ8) -0.156
FBXL12 (UniProt Q9NXK8) -0.014
FARS2 (UniProt O95363) 0.037
FBXO45 (UniProt P0C2W1) 0.173
FBXO46 (UniProt Q6PJ61) 0.051
FBLN1 (UniProt P23142) -0.032
FEM1A (UniProt Q9BSK4) -0.147
FIP1L1 isoform 3 (UniProt Q6UN15) -0.03
FBXO44 isoform 2 (UniProt Q9H4M3) -0.124
FARP1 isoform 2 (UniProt Q9Y4F1) 0.072
FOXJ2 (UniProt Q9P0K8) 0.02
FLT4 (UniProt P35916) 0.012
FBRS (UniProt J3KNZ9) 0.033

Compound: CC(C)(O)CC(=O)NCCn1ccc2ncnc(Nc3ccc(Oc4cccc(C(F)(F)F)c4)c(Cl)c3)c21
Experiment: as above
Procedure, shortened: as §1

log2 fold change, inactive:
FBXW2 (UniProt Q9UKT8) -0.137
FKBP2 (UniProt P26885) 0.025
FHAD1 isoform 3 (UniProt B1AJZ9) -0.232
FBXW11 (UniProt Q9UKB1) 0
FKRP (UniProt Q9H9S5) -0.015
FOPNL (UniProt Q96NB1) -0.042
FMC1 (UniProt Q96HJ9) 0.077
FMR1 isoform 9 (UniProt Q06787) -0.026
FAM86B2 (UniProt P0C5J1) 0.084
FBXW8 (UniProt Q8N3Y1) -0.174
FGD6 (UniProt Q6ZV73) 0.095
FEZ2 isoform 2 (UniProt Q9UHY8) -0.073
FANCC (UniProt Q00597) -0.331
FNBP4 isoform 2 (UniProt Q8N3X1) -0.013
FMNL2 isoform 3 (UniProt Q96PY5) 0.185
FIZ1 (UniProt Q96SL8) -0.056
FBRSL1, A0A3B3IRR3 0.008
FAT2 (UniProt Q9NYQ8) -0.123
FBXL12 (UniProt Q9NXK8) -0.021
FARS2 (UniProt O95363) 0.011
FBXO45 (UniProt P0C2W1) 0.045
FBXO46 (UniProt Q6PJ61) 0.087
FBLN1 (UniProt P23142) 0.057
FEM1A (UniProt Q9BSK4) -0.03
FIP1L1 isoform 3 (UniProt Q6UN15) -0.095
FBXO44 isoform 2 (UniProt Q9H4M3) 0.134
FARP1 isoform 2 (UniProt Q9Y4F1) 0.044
FOXJ2 (UniProt Q9P0K8) -0.035
FLT4 (UniProt P35916) -0.005
FBRS (UniProt J3KNZ9) 0.052
